# Source: doi:10.1101/2024.07.01.601539
# Sequences of proteins named here, by UniProt entry; tags and fusion partners are left off. Residues count along the entry.
# UniProt Q9BXW4, residues 1-126: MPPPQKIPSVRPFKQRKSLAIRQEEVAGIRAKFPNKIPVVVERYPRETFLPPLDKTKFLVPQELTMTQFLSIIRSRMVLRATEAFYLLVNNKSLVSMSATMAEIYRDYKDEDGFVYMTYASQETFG
# UniProt P04792: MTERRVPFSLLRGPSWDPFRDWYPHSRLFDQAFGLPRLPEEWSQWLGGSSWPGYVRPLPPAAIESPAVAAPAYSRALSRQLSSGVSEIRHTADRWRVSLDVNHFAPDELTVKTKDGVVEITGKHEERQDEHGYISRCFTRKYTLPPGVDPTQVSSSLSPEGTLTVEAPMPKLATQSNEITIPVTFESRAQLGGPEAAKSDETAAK
# No constants are given. Whether binding was seen depends on the method and setting. Binding seen in cells or lysates may run through a third protein. Some entries that bind do so weakly or less than the wild type.
# Biological target: LC3C (endogenous, human primary gingival epithelial cells) (human (endogenous in primary GECs)) (UniProt Q9BXW4)
# Test: co-IP
substance,measurement,value
"Heat Shock Protein 27 (HSp27) (endogenous, human primary gingival epithelial cells) (from UniProt P04792 1-205)",binding,binds
